Measurements from article doi:10.1101/2023.02.09.527857.
Results are given in words; binding and its absence hold for the method and conditions named. Binding seen in cells or lysates may run through a third protein. Some entries that bind do so weakly or less than the wild type. For some of these results: Where a sequence is shown, tags or fusion partners need not be part of it.

By UniProt entry, the sequences of proteins in these tests, tags left out.
UniProt P63104: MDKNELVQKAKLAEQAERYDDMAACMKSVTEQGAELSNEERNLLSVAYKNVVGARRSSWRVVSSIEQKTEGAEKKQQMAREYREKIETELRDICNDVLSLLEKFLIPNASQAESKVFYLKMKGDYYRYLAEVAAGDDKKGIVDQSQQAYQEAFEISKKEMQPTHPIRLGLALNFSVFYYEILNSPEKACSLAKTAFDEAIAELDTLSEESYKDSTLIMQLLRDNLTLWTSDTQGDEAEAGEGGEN
UniProt P31946: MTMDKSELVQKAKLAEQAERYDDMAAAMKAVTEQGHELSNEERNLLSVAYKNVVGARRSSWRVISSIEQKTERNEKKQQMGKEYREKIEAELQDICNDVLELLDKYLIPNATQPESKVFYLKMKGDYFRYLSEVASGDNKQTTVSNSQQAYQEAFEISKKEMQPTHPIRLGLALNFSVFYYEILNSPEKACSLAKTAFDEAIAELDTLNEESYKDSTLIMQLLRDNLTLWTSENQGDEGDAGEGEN

How the values were obtained:
Test in all cases: co-IP
[1] = target: myc-tagged 14-3-3ζ (human) (UniProt P63104)
[2] = target: myc-tagged 14-3-3β (human) (UniProt P31946)
[3] = target: T1, myc-tagged 14-3-3η (human) (UniProt Q04917)
T1 sequence: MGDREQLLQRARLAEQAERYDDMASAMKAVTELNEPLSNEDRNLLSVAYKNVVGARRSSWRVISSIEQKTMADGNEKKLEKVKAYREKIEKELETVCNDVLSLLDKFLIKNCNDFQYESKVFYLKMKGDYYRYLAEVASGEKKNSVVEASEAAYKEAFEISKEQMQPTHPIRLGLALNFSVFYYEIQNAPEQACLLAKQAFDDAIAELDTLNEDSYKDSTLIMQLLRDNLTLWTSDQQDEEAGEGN

[4] = target: T2, myc-tagged 14-3-3γ (human) (UniProt P61981)
T2 sequence: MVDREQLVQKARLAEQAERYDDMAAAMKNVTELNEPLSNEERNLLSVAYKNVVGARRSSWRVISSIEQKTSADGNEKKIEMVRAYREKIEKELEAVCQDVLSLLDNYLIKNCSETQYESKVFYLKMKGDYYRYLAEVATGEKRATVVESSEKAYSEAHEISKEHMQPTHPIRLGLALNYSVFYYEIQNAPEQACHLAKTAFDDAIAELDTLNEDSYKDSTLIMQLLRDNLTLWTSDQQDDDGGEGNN

binding [1]: binds
binding [2]: binds
binding [3]: binds
binding [4]: binds
B1: endogenous SMAUG1 (protein, UniProt Q9UPU9 1-718)
chain: MMFRDQVGVLAGWFKGWNECEQTVALLSLLKRVSQTQARFLQLCLEHSLADCAELHVLEREANSPGIINQWQQESKDKVISLLLTHLPLLKPGNLDAKVEYMKLLPKILAHSIEHNQHIEESRQLLSYALIHPATSLEDRSALAMWLNHLEDRTSTSFGGQNRGRSDSVDYGQTHYYHQRQNSDDKLNGWQNSRDSGICINASNWQDKSMGCENGHVPLYSSSSVPTTINTIGTSTSTILSGQAHHSPLKRSVSLTPPMNVPNQPLGHGWMSHEDLRARGPQCLPSDHAPLSPQSSVASSGSGGSEHLEDQTTARNTFQEEGSGMKDVPAWLKSLRLHKYAALFSQMTYEEMMALTECQLEAQNVTKGARHKIVISIQKLKERQNLLKSLERDIIEGGSLRIPLQELHQMILTPIKAYSSPSTTPEARRREPQAPRQPSLMGPESQSPDCKDGAAATGATATPSAGASGGLQPHQLSSCDGELAVAPLPEGDLPGQFTRVMGKVCTQLLVSRPDEENISSYLQLIDKCLIHEAFTETQKKRLLSWKQQVQKLFRSFPRKTLLDISGYRQQRNRGFGQSNSLPTAGSVGGGMGRRNPRQYQIPSRNVPSARLGLLGTSGFVSSNQRNTTATPTIMKQGRQNLWFANPGGSNSMPSRTHSSVQRTRSLPVHTSPQNMLMFQQPEFQLPVTEPDINNRLESLCLSMTEHALGDGVDRTSTI
